Source: PubChem BioAssay AID1439 (NMMLSC, 2008)
The campaign covered roughly 220,000 compounds. About 770 (0.35%) were called active. This list was built around the results that the source calls inconclusive (neither active nor inactive); the mix of calls is not that of the screen. No stated cut-off is given here; in the data, active means binding response below about 49% or above about 150%; inconclusive means no clear call, values can overlap the other calls; inactive means in between.

Chains of the proteins cited; added tags and fusions are not shown.
UniProt P09471, whole entry, looked up: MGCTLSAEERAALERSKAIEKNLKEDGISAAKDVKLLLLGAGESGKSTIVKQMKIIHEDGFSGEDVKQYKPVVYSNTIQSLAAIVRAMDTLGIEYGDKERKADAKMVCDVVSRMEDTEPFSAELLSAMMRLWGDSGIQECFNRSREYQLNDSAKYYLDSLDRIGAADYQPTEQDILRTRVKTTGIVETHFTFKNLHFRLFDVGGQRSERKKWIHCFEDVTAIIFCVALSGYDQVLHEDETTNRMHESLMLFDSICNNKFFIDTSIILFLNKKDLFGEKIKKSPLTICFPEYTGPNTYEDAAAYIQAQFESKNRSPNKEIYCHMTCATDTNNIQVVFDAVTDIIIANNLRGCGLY

The compounds below were run against Guanine nucleotide-binding protein G(o) subunit alpha (Homo sapiens) (UniProt P09471) (assay: RGS7-Galphao binding modulators, primary screen, biochemical, multiplexed bead flow cytometry (AID 1439;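 further: fluorescent Galphao held in activated GDP-AlF4 state binding bead-coupled RGS7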)). Conditions: at 10 µM, actives lie on both sides.

Structure (SMILES) | binding response (% of control)
O=C(CSc1ccccn1)Nc1ccc(Cl)c([N+](=O)[O-])c1 | inconclusive: 107%
N#Cc1cc2c(=O)n3ccccc3nc2n(-c2ccc(Cl)cc2)c1=O | inconclusive: 114%
COc1cc(Cl)c(C)cc1NC(=O)COC(=O)c1cc[n+]([O-])cc1 | inactive: 108%
CCOc1ccc(-c2csc(NC(=O)c3cccc(N4C(=O)CCC4=O)c3)n2)cc1 | inconclusive: 106%
COC(=O)C1C(=O)C(C(=O)/C=C/c2ccccc2)C(=O)CC1(C)C (stereo not given) | inconclusive: 104%
CC1CCCN(C(=O)CN2CCC(c3nc4ccc(Cl)cc4[nH]3)CC2)C1 (stereo not given) | inconclusive: 31.3%
Cc1ccc2c(c1)C1CN(C)CCC1N2C(=O)c1cccc(S(=O)(=O)N2CC(C)CC(C)C2)c1 (stereo not given) | inconclusive: 162%
CCCOc1ccc(C(CC(=O)O)NC(=O)c2cccs2)cc1 (stereo not given) | inactive: 103%
Cc1ccc(Nc2c(-c3ccc(N(C)C)cc3)nc3ncccn23)cc1 | inconclusive: 92%
Cc1ccc(S(=O)(=O)CCSc2nccn2C)cc1 | inconclusive: 92.4%
C/C(=N\NC(=O)c1cc2ccccc2cc1O)c1cc2ccccc2o1 | inconclusive: 91.8%
CCn1c(COc2ccc(=O)n(-c3ccccc3)n2)nnc1SCC(=O)OC | inconclusive: 92.2%
Cc1ccc(C)c(NC(=S)N(C)C)c1 | inconclusive: 101%
CCOC(=O)c1c(N2C(=O)CC(Sc3ccccc3C(=O)O)C2=O)sc(C)c1C (stereo not given) | inconclusive: 96.4%
CCOc1ccc(CN2CCN(Cc3[nH]c4ccccc4c3C)CC2CCO)cc1 (stereo not given) | inactive: 102%
OCC1CCCCN1CCNCc1cn[nH]c1-c1cccc2ccccc12 (stereo not given) | inconclusive: -71.5%
O=C(CSc1ccc2nnc(CCNC(=O)c3ccccc3)n2n1)Nc1ccccc1 | inconclusive: 115%
CCCN1CCN(c2ccc(S(N)(=O)=O)cc2[N+](=O)[O-])CC1 | inconclusive: 125%
O=C(NC1CC1)C1=C[C@H](C2CCCCC2)C[C@H](OCCCCO)O1 | inconclusive: 90.8%
CCOC(=O)c1sc(Nc2nc(C)cc(C)n2)nc1C | inconclusive: 101%
Cc1ccc(NC(=O)C2CC(=O)Nc3nc4ccccc4n32)c(C)c1 (stereo not given) | inconclusive: 117%
CC(=O)c1cc(C#N)c(SCC(=O)OC(C)(C)C)nc1C | active: 183% [activator]
C=C(C)C(=O)Nc1cccc(C2=NOC3(C2)C[C@H](C(N)=O)N(C(=O)c2ccccc2)C3)c1 (stereo not given in full) | inconclusive: 97.5%

Individual results from above.
Value for CCOC(=O)c1c(N2C(=O)CC(Sc3ccccc3C(=O)O)C2=O)sc(C)c1C (stereo not given) under binding response (% of control): inconclusive: 96.4%
Value for O=C(CSc1ccccn1)Nc1ccc(Cl)c([N+](=O)[O-])c1 under binding response (% of control): inconclusive: 107%

The list continues:

Structure (SMILES) | binding response (% of control)
CCCNC(=O)c1ccc2c(=O)c(O)c(-c3ccc(F)cc3)[nH]c2c1 | inconclusive: 101%
Fc1ccc(N2CCN(C(=S)NCC3CCCO3)CC2)cc1 (stereo not given) | inactive: 102%
Cc1ccc(-c2nc3[nH]c(=O)cc(NC(=O)C(C)C)n3n2)cc1 | inconclusive: 112%
COc1cc(C[C@H](C)[C@H](C)Cc2ccc3c(c2)OCO3)ccc1O | inconclusive: 58.1%
CNS(=O)(=O)/C=C/c1ccccc1 | inconclusive: 120%
COc1cccc(/C=C/C(=O)Nc2cccc(C(C)=O)c2)c1OC | inconclusive: 76.1%
CN1CCc2c(sc3nc(NN)n(Cc4ccccc4)c(=O)c23)C1 | inconclusive: 346%
COc1ccc(C2CC(c3cccs3)=NN2C(=O)CSc2nncn2C)cc1OC (stereo not given) | inconclusive: 112%
O=C1CN(C(=O)CNCc2ccccc2Cl)c2ccccc2N1 | inconclusive: 40.1%
Cc1ccc(-c2csc(NC(=O)c3cnccn3)n2)cc1C | inconclusive: 154%
COc1cc(Cl)c(CC(=O)c2c[nH]c3ccccc23)cc1OC | inconclusive: 105%
COC(=O)c1ccc(SCC(=O)NC2CCCCC2)c([N+](=O)[O-])c1 | inactive: 101%
CC(=O)C1=C(C)N2CCN=C2S1 | inconclusive: 26.9%
Cc1cccc2nc3c(nc12)-c1ccccc1C3=O | inconclusive: 113%
Cc1nn(-c2ccccc2)nc1CNC(=O)c1ncoc1-c1ccccc1 | inconclusive: 115%
COc1ccccc1NC(=O)N1CCC(c2nc3cc(C)c(C)cc3[nH]2)CC1 | inactive: 104%
O=C(c1ccc([N+](=O)[O-])c(CS(=O)(=O)c2ccc(Cl)cc2)c1)N1CCCCC1 | inactive: 109%
Nc1ccc(C(=O)Nc2cccc(N)c2)cc1 | inconclusive: 48.1%
COc1ccc(CNC(=O)COC(=O)/C=C/c2ccc(Cl)cc2)cc1 | inconclusive: 110%
Cc1ccc(Nc2nc3ccccc3n3nnnc23)cc1 | inconclusive: 101%
N#CC1=C(Nc2ccccc2)SC=C(c2ccc(Br)cc2)N=C1N1CCOCC1 | inactive: 96.2%
Cn1ncc2c(NNC(=O)c3ccc(O)cc3)ncnc21 | inconclusive: 101%
